Assay results taken from publication PMC4977651, “Molecular features of biguanides required for targeting of mitochondrial respiratory complex I and activation of AMP-kinase” (BMC Biology, 2016).

Key:
permeabilized MDBK cells = assay: ADP-stimulated rotenone-sensitive OCR in permeabilized MDBK cells; assay type: cell-based, Bos taurus; conditions: MDBK permeabilised cells; for matrix biguanide concentration, mean: external concentration IC50/5; for fold accumulation: matrix vs external (IC50/5) biguanide concentration
Experimental: For permeabilized cell experiments, cells were seeded into XF96 plates at 0.9–1.1 × 10^4 per well and incubated for 48 h at 37 °C in 5 % CO2. Then, the growth medium was exchanged for assay buffer containing 3 nM plasma membrane permeabilizer ‘PMP’ (Seahorse Biosciences Inc.), 10 mM glutamate, 10 mM malate, 220 mM mannitol, 70 mM sucrose, 10 mM KH2PO4, 5 mM MgCl2, 1 mM EGTA, 0.2 % fatty acid-free bovine serum albumin (BSA), and 2 mM HEPES (pH 7.4 at 37 °C). […] The biguanides were allowed to accumulate for 30 min, then respiration was […] by the addition of 4 mM ADP. Rotenone was added (2 μM) at the end of the experiment.
(§1) Rotenone-sensitive OCRs were calculated by subtracting the rotenone-insensitive rates (determined at the end of the experiment). OCRs were normalized by dividing by the OCR recorded immediately prior to the addition of biguanide. For rate of uptake calculations, the OCRs at time points after biguanide addition were divided by the OCRs at the same time points in control experiments. Data from wells with failed port injections were excluded from the analyses. The respiratory control ratio (RCR) values (state III versus state IV respiration) were ~11 and ~6 for permeabilized MDBK and 143B cells, respectively.

MDBK cells = assay: Rotenone-sensitive oxygen consumption rate in intact MDBK cells; assay type: cell-based, Bos taurus; conditions: for matrix biguanide concentration, mean: 40 mins exposure, external concentration IC50/10; for fold accumulation: matrix vs external (IC50/10) biguanide concentration
Experimental: 143B (CRL-8303 from ATCC), HepG2 (85011430 from The Health Protection Agency), and MDBK (CCL-22 from ATCC) cells were grown on Dulbecco’s modified Eagle’s medium (DMEM) supplemented with 10 % fetal bovine serum (FBS, Thermo Fisher Scientific) at 37 °C in 5 % CO2. All cells were confirmed as negative for mycoplasma.
Oxygen consumption rates (OCRs) were measured using a Seahorse XF96 extracellular flux analyzer at 37 °C. For intact cell measurements, 1.4 × 10^4 143B, HepG2, or MDBK cells were plated (per well) in DMEM containing 10 % FBS into Seahorse Bioscience Inc. XF96 plates and incubated for ~12 h at 37 °C in 5 % CO2. Then, the medium was exchanged for assay buffer containing DMEM, 4.5 g L^−1 glucose, 1 mM pyruvate, 32 mM NaCl, 2 mM GlutaMAX, 15 mg L^−1 phenol red, and 20 mM HEPES (pH 7.4 at 37 °C) and the cells placed in a CO2-free incubator at 37 °C for 30 min. Basal oxygen consumption rates were established before the addition of biguanides at one-tenth of their IC50 (IC50/10), and followed for ~ 6 h before the addition of rotenone (2 μM).
as §1

| SMILES | matrix biguanide concentration, mean (permeabilized MDBK cells) [mM] | fold accumulation (permeabilized MDBK cells) | matrix biguanide concentration, mean (MDBK cells) [mM] | fold accumulation (MDBK cells) |
| --- | --- | --- | --- | --- |
| NC(N)=NC(N)=NCCc1ccc(Cl)cc1 [compound 1, 2-[2-(4-chlorophenyl)ethyl]-1-(diaminomethylidene)guanidine] | 3.117 | 39.154 | 0.002 | 0.053 |
| N=C(N)NC(N)=Nc1ccccc1 [compound 2, phenyl biguanide] | 0.000 | 0.000 | 0.001 | 0.024 |
| NC(N)=NC(N)=NCc1ccccc1 [compound 3, 2-benzyl-1-(diaminomethylidene)guanidine] | 44.099 | 227.401 | 0.028 | 0.288 |
| CC(C)N=C(N)N=C(N)N [compound 4, 1-(diaminomethylidene)-2-(propan-2-yl)guanidine] | 192.961 | 33.453 | 2.783 | 0.965 |
| CC(C)N=C(N)N=C(N)NC(C)C [compound 5, N-(propan-2-yl)-1-3-(propan-2-yl)carbamimidamidomethanimidamide] | 0.008 | 0.119 | 0.002 | 0.064 |
| [H]/N=C(\N/C(=N/[H])Nc1ccc(Cl)cc1)NC(C)C [proguanil, reference compound] | 0.000 | 0.000 | 0.000557 | 0.342 |
